What all share (conditions): 10 µM; pre-incubation: 30-90 min
The subject of assay [1] is Danio rerio larvae (5 dpf, TLF). The assay can be described thus: OMR-Perf (SSMD vs DMSO vehicle); higher = higher than vehicle (e.g. higher dark-flash O-bend response probability, or better optomotor performance).
The test system is the same in assay [2]. The assay can be described thus: Prob-Test (SSMD vs DMSO vehicle); higher = higher than vehicle (e.g. higher dark-flash O-bend response probability, or better optomotor performance).
Assay [3] has the same test system. In words: Prob-Naive (SSMD vs DMSO vehicle); higher = higher than vehicle (e.g. higher dark-flash O-bend response probability, or better optomotor performance).
Assay [4] has the same test system. The assay can be described thus: Prob-Train (SSMD vs DMSO vehicle); higher = higher than vehicle (e.g. higher dark-flash O-bend response probability, or better optomotor performance).

From the supplement of paper PMC10727501 come the findings set out here.

The list shows a part of the results. Single values are uncertain here, since repeats match poorly.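 Free-swimming zebrafish larvae were scored for O-bend response probability to dark flashes (naive: first five; training: remaining flashes of four 60-flash blocks; test: later 60-flash block) and for turning toward alternating leftward/rightward LED motion (OMR). Six treated larvae were compared with sixty 0.1% DMSO controls; |SSMD|≥2 defined a hit.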

The compound `O=C(/C=C\n1cnc(-c2cc(C(F)(F)F)cc(C(F)(F)F)c2)n1)N1CC(F)(F)C1` came in with an OMR-Perf in assay [1] of -0.394. Also, the Prob-Test in assay [2] is -0.0814. The compound further registered a Prob-Naive in assay [3] of -0.785. The compound also gave a Prob-Train in assay [4] of -0.735.

As to `CCOc1ccc2nc(S(N)(=O)=O)sc2c1` [Ethoxzolamide], the OMR-Perf in assay [1] was -0.919. This compound also showed a Prob-Test in assay [2] of -1.85. In assay [3], this compound yielded a Prob-Naive of -1.05. The compound also came in with a Prob-Train in assay [4] of -1.36.

As to `CCOC(=O)CCC(=O)O[C@H]1[C@H](O[C@@H]2[C@@H](C)[C@H](O[C@H]3C[C@@](C)(OC)[C@@H](O)[C@H](C)O3)[C@@H](C)C(=O)O[C@@H](CC)[C@@](C)(O)[C@H](O)[C@@H](C)C(=O)[C@H](C)C[C@@]2(C)O)O[C@H](C)C[C@@H]1N(C)C` [Erythromycin Ethylsuccinate], the OMR-Perf in assay [1] is -0.393. In addition, the Prob-Test in assay [2] was -0.316. Moreover, the Prob-Naive in assay [3] was -0.3. The compound also registered a Prob-Train in assay [4] of -0.413.

Regarding `NS(=O)(=O)C#Cc1ccccc1` [Pifithrin-Î± (PFTÎ±)], the OMR-Perf in assay [1] is -0.566. Besides, the Prob-Test in assay [2] was -1.39. For the same compound, in assay [3], the Prob-Naive is -1.98. The same compound registered a Prob-Train in assay [4] of -2.33.

The compound `COC(c1ccccc1)(c1ccccc1)[C@H](Oc1nc(C)cc(C)n1)C(=O)O` [Ambrisentan] showed an OMR-Perf in assay [1] of -0.151. The compound also yielded a Prob-Test in assay [2] of 0.0913. This compound also came in with a Prob-Naive in assay [3] of -0.151. Besides, the Prob-Train in assay [4] is 0.0748.

In assay [1], `CC[C@@]1(O)C(=O)OCc2c1cc1n(c2=O)Cc2cc3c(CN(C)C)c(O)ccc3nc2-1.Cl` [Topotecan HCl] came in with an OMR-Perf of 0.0509. The same compound came in with a Prob-Test in assay [2] of 0.263. The same compound registered a Prob-Naive in assay [3] of 0.214. The compound also showed a Prob-Train in assay [4] of 0.112.

For the compound `CC(C)(C)NC(=O)[C@@H]1CC[C@H]2[C@@H]3CC[C@H]4NC(=O)C=C[C@]4(C)[C@@H]3CC[C@]12C` [Finasteride], the OMR-Perf in assay [1] worked out at 0.399. The same compound returned a Prob-Test in assay [2] of 0.313. This compound returned a Prob-Naive in assay [3] of -0.319. Besides, the Prob-Train in assay [4] worked out at 0.5.

The compound `CCOc1cc(CC(=O)N[C@@H](CC(C)C)c2ccccc2N2CCCCC2)ccc1C(=O)O` [Repaglinide] came in with an OMR-Perf in assay [1] of -0.441. For the same compound, the Prob-Test in assay [2] was -0.018. Besides, the Prob-Naive in assay [3] amounted to 0.271. The compound further came in with a Prob-Train in assay [4] of 0.303.

As to `c1ccc2c(CCNc3ccc(Nc4ccncc4)cc3)c[nH]c2c1`, the OMR-Perf in assay [1] came to 0.363. Moreover, the Prob-Test in assay [2] is -0.0436. The compound also displayed a Prob-Naive in assay [3] of 0.0042. In addition, the Prob-Train in assay [4] amounted to 0.219.

Consider `CN1CCN(c2nc(C3=C(c4c[nH]c5ccccc45)C(=O)NC3=O)c3ccccc3n2)CC1` [Sotrastaurin], for which the OMR-Perf in assay [1] was -0.284. Also, the Prob-Test in assay [2] stood at 0.838. Besides, the Prob-Naive in assay [3] was -0.0896. Besides, the Prob-Train in assay [4] was determined as 0.508.

Consider `NC(=O)Nc1cc(-c2cccc(F)c2)sc1C(=O)N[C@H]1CCCNC1`, for which the OMR-Perf in assay [1] came out at 0.16. The Prob-Test in assay [2] was 0.0672. This compound also had a Prob-Naive in assay [3] of -0.297. Besides, the Prob-Train in assay [4] was -0.404.

`Cl.c1ccc(CC2=NCCN2)cc1` [Tolazoline HCl] displayed an OMR-Perf in assay [1] of 0.028. The compound further registered a Prob-Test in assay [2] of -0.24. For the same compound, the Prob-Naive in assay [3] is -0.685. The compound also showed a Prob-Train in assay [4] of -0.000202.

In the case of `CC(=O)N[C@@H](CS)C(=O)O` [Acetylcysteine], the OMR-Perf in assay [1] was -0.248. In addition, the Prob-Test in assay [2] was -1.27. In assay [3], this compound displayed a Prob-Naive of 0.471. The same compound yielded a Prob-Train in assay [4] of -0.893.

As for `NC(=O)c1cccc(-c2cc(Nc3ccc(OC(F)(F)F)cc3)ncn2)c1`, the OMR-Perf in assay [1] is 0.32. This compound also returned a Prob-Test in assay [2] of -0.346. This compound returned a Prob-Naive in assay [3] of 0.0457. In assay [4], this compound registered a Prob-Train of -0.272.

The compound `COc1ccc(COc2ccc(Cc3cnc(N)nc3N)cc2OC)cc1` had an OMR-Perf in assay [1] of -0.655. The Prob-Test in assay [2] was -0.283. Also, the Prob-Naive in assay [3] was -0.0443. This compound also gave a Prob-Train in assay [4] of -0.131.

In the case of `O=c1c(O)c(-c2ccc(O)c(O)c2)oc2cc(O)ccc12` [Fisetin], the OMR-Perf in assay [1] was 0.0772. Besides, the Prob-Test in assay [2] amounted to 0.566. In assay [3], this compound displayed a Prob-Naive of 0.0956. The compound further yielded a Prob-Train in assay [4] of 0.344.

In the case of `Cl.c1ccc(CN(CC2=NCCN2)c2ccccc2)cc1` [Antazoline HCl], in assay [1], the OMR-Perf was -0.496. In assay [2], this compound came in with a Prob-Test of -0.908. The Prob-Naive in assay [3] is -0.199. This compound gave a Prob-Train in assay [4] of -0.0155.

The compound `O=C[C@H](O)[C@@H](O)[C@H](O)[C@H](O)CO` [Dextrose] had an OMR-Perf in assay [1] of -0.326. Further, the Prob-Test in assay [2] was found to be 0.181. In assay [3], this compound had a Prob-Naive of -0.337. Moreover, the Prob-Train in assay [4] is -0.455.

As for `Cl.Clc1ccc2nsnc2c1NC1=NCCN1` [Tizanidine HCl], in assay [1], the OMR-Perf is -0.299. In assay [2], this compound registered a Prob-Test of -0.998. Besides, the Prob-Naive in assay [3] is -0.183. Further, the Prob-Train in assay [4] was -0.459.

`COc1c(N2CCNC(C)C2)c(F)cc2c(=O)c(C(=O)O)cn(C3CC3)c12` (stereo not drawn) [Gatifloxacin] showed an OMR-Perf in assay [1] of -0.536. In assay [2], this compound registered a Prob-Test of 0.207. In assay [3], the Prob-Naive was -0.134. Besides, in assay [4], the Prob-Train stood at 0.202.

Consider `CCc1ccc(CCOc2ccc(CC3SC(=O)NC3=O)cc2)nc1.Cl` (stereo not drawn) [Pioglitazone HCl], for which the OMR-Perf in assay [1] is -0.308. Further, in assay [2], the Prob-Test is -0.989. Moreover, in assay [3], the Prob-Naive is -0.305. For the same compound, in assay [4], the Prob-Train is -1.26.

On to `Cc1cc(CN2CCN(c3c(Br)cnc4[nH]c(-c5ccc(N6CCN(C)CC6)cc5)nc34)CC2)no1`, for which the OMR-Perf in assay [1] was -0.108. Further, the Prob-Test in assay [2] was 0.0214. Moreover, the Prob-Naive in assay [3] was -0.397. The Prob-Train in assay [4] is -0.534.

For `CCOCC(O)COc1ccc(NC(=O)CC[S+](C)C)cc1.Cc1ccc(S(=O)(=O)[O-])cc1` (stereo not drawn) [Suplatast Tosylate], the OMR-Perf in assay [1] worked out at 0.068. In assay [2], this compound showed a Prob-Test of -0.235. For the same compound, in assay [3], the Prob-Naive was -0.327. Also, the Prob-Train in assay [4] worked out at 0.0196.

`CN(C)CCN1C(=O)c2cccc3cc(N)cc(c23)C1=O` [Amonafide] showed an OMR-Perf in assay [1] of -0.147. This compound also gave a Prob-Test in assay [2] of -0.568. In assay [3], the Prob-Naive is -0.192. In assay [4], this compound had a Prob-Train of -0.517.

`COc1cc2ncnc(Nc3ccc(F)c(Cl)c3)c2cc1OCCCN1CCOCC1` [Gefitinib (ZD1839)] returned an OMR-Perf in assay [1] of -0.111. This compound also had a Prob-Test in assay [2] of 0.0125. In assay [3], this compound showed a Prob-Naive of -0.929. The Prob-Train in assay [4] was -0.948.

`CCN1CC(CCN2CCOCC2)C(c2ccccc2)(c2ccccc2)C1=O.Cl.O` (stereo not drawn) [Doxapram HCl] yielded an OMR-Perf in assay [1] of 0.269. Moreover, in assay [2], the Prob-Test is 0.184. The compound further registered a Prob-Naive in assay [3] of 0.124. In assay [4], this compound returned a Prob-Train of -0.5.

Take `CN1CCc2c(c3ccccc3n2Cc2ccc(C(=O)NO)cc2)C1` [Tubastatin A]: in assay [1], the OMR-Perf was 0.374. In assay [2], this compound displayed a Prob-Test of -0.135. Also, in assay [3], the Prob-Naive stood at 0.587. This compound showed a Prob-Train in assay [4] of -0.0929.
